US7951962B2, “Organic semiconductor compound, organic semiconductor thin film, organic semiconductor coating liquid, organic thin film transistor, methods for producing bis(benzo[4,5] thieno)[2,3-B:3′2′-E][1,4]dithin and bis(benzo [4,5]thieno)[2,3-B:2′3′-E][1,4]dithiin” (Seiko Epson Corporation, priority 2006, dated 2011)

What was measured:
[1] = Characteristics of bottom-gate organic thin film transistor (example 1, vacuum vapor deposited thin film)
Text: In an example 1 below, the organic thin film transistor was manufactured using the syn-type bis(benzo[4,5]thieno)[2,3-b: 3′2′-e][1,4]dithiin to evaluate characteristics thereof. A description will be given of a method for manufacturing the thin film transistor of the example 1 with reference to FIGS. 2A through 3.
The substrate 11 shown in FIG. 2A is a monocrystal silicon substrate (silicon wafer) having an impurity-doped region. The region that was conductively doped with an impurity was used as the gate electrode 12.
Next, patterns of the source electrode 14 and the drain electrode 15 made of gold (Au) were formed by a vacuum deposition method and lithography. A distance (channel length) between both electrodes 14 and 15 was set to be 50 μm.
The organic semiconductor thin film 17 was 100 nm in thickness.
Characteristics of the bottom-gate type organic thin film transistor (gate electrode: n-type silicon; channel length L: 50 μm; and channel width W: 2 mm) obtained by the above method were measured in a vacuum. Measurements were performed for both p- and n-channel conditions.
In FIG. 3, the vertical axis on the left is a linear vertical axis and the vertical axis on the right is a logarithmic vertical axis.

[2] = Transfer characteristics of organic field effect transistor (example 2, monocrystal); conditions: VD −50V
Text: In an example 2, the organic thin film transistor was manufactured using the anti-type bis(benzo[4,5]thieno)[2,3-b: 2′3′-e][1,4]dithiin to evaluate the characteristics of the thin film transistor. Hereinafter, a method for manufacturing the thin film transistor of the example 2 will be described with reference to the drawings concerned.
In the example 2, first, a monocrystal was produced to be used as the organic semiconductor thin film 17. As an exemplary method, the so-called physical vapor transport method was used to produce the monocrystal made of the anti-type bis(benzo[4,5]thieno)[2,3-b: 2′3′-e][1,4]dithiin.
FIG. 4 illustrates the physical vapor transport method. […] Next, on the higher-temperature side was placed a powdery organic semiconductor material 7 such as the anti-type bis(benzo[4,5]thieno)[2,3-b: 2′3′-e][1,4]dithiin. Temperature was adjusted such that the anti-type bis(benzo[4,5]thieno)[2,3-b: 2′3′-e][1,4]dithiin was gradually sublimed to be crystallized on a low-temperature portion of a lower stream side thereof. Furthermore, an obtained crystal 8 was placed again on the upper stream side to be repeatedly recrystallized a couple of times (e.g. three times), whereby a high-grade organic semiconductor crystal could be produced. In this manner, a flat-surface and normal monocrystal of the anti-type bis(benzo[4,5]thieno)[2,3-b: 2′3′-e][1,4]dithiin was obtained.
A region having conductivity due to the doped impurity was used as the gate electrode 12. […] Next, a surface of the conductive silicon wafer was oxidized to form the gate insulation film 13 made of silicon oxide with a thickness of approximately 500 nm. Then, on the gate insulation film 13 was deposited a gold layer having a thickness of approximately 10 nm by vacuum vapor deposition. After that, patterning of the layer was performed by etching and lithography to form the source electrode 14 and the drain electrode 15. The distance between the electrodes 14 and 15 was set to be, for example, approximately 5 μm. […]

c1ccc2c3c(sc2c1)Sc1sc2ccccc2c1S3 [bis(benzo[4,5]thieno)[2,3-b: 3′2′-e][1,4]dithiin]
ON/OFF ratio of the device ([1]; VD −5V, logarithmic plotting of FIG. 3): approximately 105
semiconductor characteristics, n-channel condition ([1]; measurements for the n-channel condition): no semiconductor characteristics were observed
semiconductor characteristics (ID versus VG) ([1]; p-channel condition, VD −5V, FIG. 3): p-type semiconductor characteristics with a negative threshold voltage
threshold voltage Vth ([1]; thin film 100 nm by vacuum vapor deposition, VD −5V, measured in a vacuum, p-channel, linear plotting of FIG. 3): −60.5 V
mobility μ ([1]; thin film 100 nm by vacuum vapor deposition, channel length 50 μm, width 2 mm, VD −5V, measured in a vacuum, p-channel, linear plotting of FIG. 3): 5.0×10^−3 cm^2/Vs

c1ccc2c3c(sc2c1)Sc1c(sc2ccccc12)S3 [bis(benzo[4,5]thieno)[2,3-b: 2′3′-e][1,4]dithiin]
mobility μ of the device ([2]; monocrystal bonded on modifying film, electrode distance approximately 5 μm, calculated from FIG. 6): 3.0×10^−3 cm^2/Vs
semiconductor characteristics (conductivity σ versus VG) ([2]; monocrystal, FIG. 6): p-type semiconductor characteristics with a negative threshold voltage
threshold voltage Vth ([2]; monocrystal, calculated from FIG. 6): approximately −20 V
